Measured values from PubChem BioAssay AID504444 (National Center for Advancing Translational Sciences (NCATS), 2011).
Out of some 360,000 compounds screened, about 7,500 (2.1%) were called active. Inconclusive results, whose numbers are uncertain, are shown with a selection of clear calls. Calls come from the whole dose curve; as a rule, active = well fitted inhibition curve with a large enough effect; inconclusive = small, poorly fitted or top-dose-only effect, or effect the other way; inactive = flat fitted curve, though single readings scatter. A potency beside an inconclusive call is a rough fit, not a confirmed value.
Potency is the fitted concentration of half-maximal effect.

Experiment: Nrf2 qHTS screen for inhibitors; note: nearly all actives have a fitted effect of over 60% in size
Settings: A549 ARE-Fluc reporter, luciferase luminescence, 18-24 h; series mostly up to 46 µM
Method in brief: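 A549 ARE_Fluc cells (5000/well, 5% FBS OPTI-MEM) pre-incubated 2 h, then treated with compounds 18-24 h at 37C/5% CO2 in concentration-response. CellTiter-Fluor viability read first; BugLite luciferase luminescence after 15 min at room temperature gives Nrf2 activity.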
With `O=C(Cn1c2ccccc2c2nc3n(c(=O)c21)CCCS3)Nc1ccccc1` the Potency was inconclusive: 25.9 µM [falling, single point]. For `O=C(CSc1nnc2c(n1)[nH]c1ccccc12)N1CCCCC1`, the Potency was inconclusive: 18.4 µM [falling, partial curve]. With `CCOc1ccc(CNC(=O)Cn2c(=O)c3cccn3c3ccccc32)cc1` the Potency was active: 16.4 µM. For `COCCn1c(C)cc(/C=N/NC(=O)c2cccnc2)c1C`, the Potency was inconclusive: 3.66 µM [activator, full curve, poor fit]. With `COc1c(/C=N/Nc2nc(N3CCCCC3)nc(N3CCCCC3)n2)cccc1[N+](=O)[O-]` the Potency was inconclusive: 4.11 µM [falling, full curve]. In the case of `COc1ccc(Cl)cc1C(=O)Nc1ccc(OCC(=O)N2CCOCC2)cc1`, the Potency is reported as inconclusive: 25.9 µM [activator, single point]. In the case of `O=c1[nH]ccc2c([N+](=O)[O-])cccc12`, the Potency is reported as inconclusive: 29.1 µM [falling, single point]. With `Cc1ccc(NC(=S)Nc2ncccc2C)c(C)c1` the Potency was inconclusive: 1.84 µM [activator, full curve, poor fit]. For `O=C(Nc1ccc(Cl)cc1)N1CCC(c2nc(-c3ccccc3Cl)no2)CC1`, the Potency was inconclusive: 29.1 µM [falling, single point]. With `CSc1cccc(NC(=O)CSc2ccccc2)c1` the Potency was inconclusive: 16.4 µM [activator, single point]. In the case of `COc1ccc(-c2cc(C(=O)NCC3CCCO3)c3cc(C)ccc3n2)cc1` (centres undefined), the Potency is reported as inconclusive: 7.31 µM [activator, partial curve]. With `COc1ccc(-c2cc(C(F)(F)F)nc(-n3cc(Cl)cn3)n2)cc1` the Potency was inconclusive: 32.6 µM [falling, partial curve, poor fit]. With `Nc1cccc(C#Cc2ccc3c(=O)c4ccccc4oc3c2)c1` the Potency was inconclusive: 2.59 µM [activator, full curve, poor fit]. For `Cc1ccc(S(=O)(=O)N(CC(=O)NCc2ccncc2)Cc2ccccc2F)cc1`, the Potency was inconclusive: 4.61 µM [activator, partial curve, poor fit]. In the case of `CCOc1ccc(S(=O)(=O)Nc2ccc3c(c2)n(C)c(=O)n3C)cc1`, the Potency is reported as active: 16.4 µM. With `Cc1cc2cc(CCNC(=O)c3cccc([N+](=O)[O-])c3)c(=O)[nH]c2cc1C` the Potency was inconclusive: 29.1 µM [falling, single point]. With `N#C/C(=C/c1ccc(-c2ccc(Br)cc2)o1)C(=O)NC1CCCCC1` the Potency was inconclusive: 29.1 µM [falling, single point]. With `CCn1nc2cc(C(=O)NCc3cc(C(F)(F)F)cc(C(F)(F)F)c3)ccc2c1OC` the Potency was inconclusive: 13 µM [falling, partial curve]. For `CC(C)(C)NC(=O)C(c1ccc(-c2ccccc2)cc1)N(C[C@H]1CC[C@@H]([C@@H]2CC[C@H](CO)O2)O1)C(=O)c1cccc(Cl)c1` (some centres undefined), the Potency was active: 23.1 µM. For `CN1CCN(c2oc(-c3cccs3)nc2S(=O)(=O)c2ccccc2)CC1`, the Potency was “inactive”. With `CCCN1CCN(S(=O)(=O)c2cc3c(cc2C)NC(=O)CO3)CC1` the Potency was “inactive”. With `COc1cc2c(cc1NC(=O)C(C)Oc1ccccc1)oc1ccccc12` (centres undefined) the Potency was inconclusive: 8.2 µM [activator, partial curve]. In the case of `COc1ccc(CN2C(=O)CCC2(C)C(=O)NCc2cccnc2)c(OC)c1` (centres undefined), the Potency is reported as “inactive”. With `O=C(NCc1ccc(Cl)cc1Cl)c1cccc(N2CCCS2(=O)=O)c1` the Potency was inconclusive: 23.1 µM [falling, single point]. With `COc1cc(OC)cc(-c2c(-c3cccs3)c3cc(-c4cnc(OC)nc4)ccc3n2C)c1` the Potency was “inactive”. For `CCn1cc2nc(SCc3cccc(C(F)(F)F)c3)n(Cc3ccc(C)cc3)c(=O)c2n1`, the Potency was inconclusive: 32.6 µM [falling, single point]. With `Cc1noc(C)c1C(=O)N1CCCC(Nc2ccc(C(C)C)cc2)C1` (centres undefined) the Potency was inconclusive: 29.1 µM [falling, single point]. For `COc1cccc(OCc2cc(C(=O)N(C)CCOc3ccc(C)cc3)no2)c1`, the Potency was inconclusive: 2.06 µM [activator, partial curve]. For `Cc1cc(F)ccc1NC(=O)c1c(C)oc2c1C1=NCCN1C=N2`, the Potency was inconclusive: 29.1 µM [falling, single point]. For `CS(=O)(=O)N1CCc2cc(NC(=O)c3ccc(Cl)cc3Cl)ccc21`, the Potency was inconclusive: 20.6 µM [falling, single point]. In the case of `COc1ccc(CCn2c(C)cc(C(=O)CCl)c2C)cc1OC`, the Potency is reported as inconclusive: 23.1 µM [falling, single point]. With `CC1CC(N(C(=O)c2ccco2)c2ccccc2)c2ccccc2N1C(=O)c1ccco1` (centres undefined) the Potency was inconclusive: 18.4 µM [falling, partial curve, poor fit]. With `CCCN(CCC)S(=O)(=O)c1cccc(C(=O)Nc2ccc3c(c2)OCO3)c1` the Potency was inconclusive: 29.1 µM [falling, single point]. With `Cc1ccc2cc(NC(=O)c3ccccc3)ccc2n1` the Potency was inconclusive: 2.31 µM [activator, partial curve]. With `CCOC(=O)c1c(C)[nH]c(C(=O)NNC(=O)c2ccccc2F)c1C` the Potency was inconclusive: 0.731 µM [activator, full curve]. With `CCCC(=O)Nc1sc2c(c1C(=O)Nc1ccccn1)CCCC2` the Potency was inconclusive: 18.4 µM [falling, partial curve]. With `CC(C)(C)n1cnc2cc(NCc3ccc(Br)cc3)ccc21` the Potency was inconclusive: 13 µM [activator, partial curve]. For `Cc1ccc2nc(-c3ccc(C)o3)c(Nc3ccc(Cl)cc3)n2c1`, the Potency was “inactive”. With `Cc1c(C(C)NC(=O)c2cc(COc3cccc4cnccc34)on2)cnn1C` (centres undefined) the Potency was active: 8.2 µM. For `CCN(CC)c1ccc(NC(=O)C2CCCN(S(=O)(=O)c3cnc[nH]3)C2)c(C)c1` (centres undefined), the Potency was active: 23.1 µM. In the case of `COc1ccccc1N1CCN(C(=O)CSc2nc(-c3ccco3)cc(C(F)(F)F)n2)CC1`, the Potency is reported as inconclusive: 20.6 µM [falling, single point]. With `CC(=NNC(=O)c1ccncc1)c1ccccc1Cl` the Potency was “inactive”. In the case of `COc1ccc(-c2cc3nc(C)n(N)c(=O)c3s2)cc1`, the Potency is reported as active: 6.51 µM. For `CCOc1cc(/C=C/c2nc3ccccc3s2)ccc1OCC(=O)N1CCOCC1`, the Potency was inconclusive: 2.91 µM [activator, partial curve, poor fit]. For `CCCOc1ccc(CNC(=O)c2cc3ccccn3n2)cc1`, the Potency was inconclusive: 4.11 µM [falling, partial curve, poor fit]. For `CCN(CC)C(=O)Cn1cc(S(=O)(=O)CC(=O)NCc2ccc(F)cc2)c2ccccc21`, the Potency was “inactive”. With `COc1ccc(-n2cnc3scc(-c4ccc(OC)c(OC)c4)c3c2=O)cc1` the Potency was inconclusive: 16.4 µM [falling, single point]. With `Cc1ccc(CNC(=O)Nc2ccccc2)c(C)c1` the Potency was inconclusive: 2.06 µM [activator, full curve, poor fit]. In the case of `CC(Sc1nc2ccccc2n1C)C(=O)NC(c1ccccc1)c1ccccc1` (centres undefined), the Potency is reported as “inactive”. In the case of `CC(=O)Nc1ccc(NC(=O)COC(=O)/C=C/c2ccc3c(c2)OCO3)cc1`, the Potency is reported as inconclusive: 32.6 µM [falling, single point]. In the case of `CCC1CN(C(=O)Nc2cc(Cl)ccc2C(=O)OC)c2ccccc2S1` (centres undefined), the Potency is reported as inconclusive: 6.51 µM [activator, single point]. With `O=C(NCC1c2ccccc2CCN1C(=O)CN1C(=O)c2ccccc2C1=O)C1CCCCC1` (centres undefined) the Potency was inconclusive: 2.06 µM [activator, partial curve, poor fit]. In the case of `NNc1nc(-c2ccccc2)cc(-c2ccccc2O)n1`, the Potency is reported as inconclusive: 23.1 µM [falling, partial curve, poor fit]. For `COc1cc(/C=C(/C#N)c2nc3ccccc3[nH]2)ccc1Oc1ncccc1[N+](=O)[O-]`, the Potency was inconclusive: 32.6 µM [falling, single point]. With `CC(=O)Nc1ccc(S(=O)(=O)Nc2ccc3ccccc3n2)cc1` the Potency was inconclusive: 0.58 µM [activator, full curve, poor fit]. For `Cc1c(C(=O)Nc2cccnc2Cl)oc2ccccc12`, the Potency was inconclusive: 1.16 µM [activator, full curve]. For `O=C(CSCC(=O)N1CCOCC1)Nc1nc(-c2ccccc2)cs1`, the Potency was inconclusive: 18.4 µM [activator, partial curve]. With `Cc1ccc(C)c(Cn2c(=O)n(CCCC(=O)NCc3ccc4c(c3)OCO4)c(=O)c3sccc32)c1` the Potency was inconclusive: 13 µM [falling, partial curve, poor fit]. In the case of `Oc1ccc(C[C@H]2CNCCN2CC2(c3ccccc3)CC2)cc1`, the Potency is reported as inconclusive: 20.6 µM [activator, single point]. With `C[C@@]12CCC=C[C@H]1[C@H](c1ccc3ccccc3c1)N(Cc1ccccc1)C2=O` the Potency was inconclusive: 13 µM [falling, partial curve]. For `CCCSc1ncc(Cl)c(C(=O)N2CCN(c3ccc(OC)cc3)CC2)n1`, the Potency was inconclusive: 23.1 µM [falling, single point]. For `O=c1[nH]cnc2c1ccn2C1OC(CO)C(O)C1O` (centres undefined), the Potency was inconclusive: 8.2 µM [falling, partial curve, poor fit]. For `CC12CCC=CC1C(c1cccc(Br)c1)N(Cc1ccccc1)C2=O` (centres undefined), the Potency was inconclusive: 14.6 µM [falling, partial curve, poor fit]. For `CC(=O)c1ccc(OC(=O)c2ccc(-n3nc(C)cc3C)cc2)cc1`, the Potency was inconclusive: 10.3 µM [activator, partial curve, poor fit].
